For one compound, NP40-soluble protein abundance results are on record in the supplement of paper PMC6411743.

The target in this assay is T1, TMEM43 (UniProt Q9BTV4).
T1 sequence (whole entry): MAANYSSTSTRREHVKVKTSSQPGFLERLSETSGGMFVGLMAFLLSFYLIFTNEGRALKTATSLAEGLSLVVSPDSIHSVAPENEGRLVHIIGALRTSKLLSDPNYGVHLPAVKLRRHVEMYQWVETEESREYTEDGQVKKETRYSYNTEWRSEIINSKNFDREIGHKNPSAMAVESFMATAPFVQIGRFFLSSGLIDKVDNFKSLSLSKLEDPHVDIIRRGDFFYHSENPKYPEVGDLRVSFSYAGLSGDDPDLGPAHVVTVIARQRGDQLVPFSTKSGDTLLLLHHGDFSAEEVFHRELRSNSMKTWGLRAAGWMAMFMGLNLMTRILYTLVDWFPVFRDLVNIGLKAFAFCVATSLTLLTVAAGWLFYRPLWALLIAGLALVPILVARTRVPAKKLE
Nature of the assay: NP40-soluble protein abundance relative to vehicle (solubility fold change) (ratio); higher = more soluble protein in presence of GTP. How it is done: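 Solubility proteome profiling in Jurkat crude lysate. Lysate was treated with Mg-GTP (0.1-10 mM) for 10 min at room temperature and 3 min at 37 °C, then solubilised with 0.8% NP40 and benzonase, followed by ultracentrifugation. Proteins were quantified by TMT10 LC-MS/MS; the value is the NP40-soluble abundance relative to the NP40-processed vehicle, from 3 independent experiments.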

Structures are written as SMILES. ± gives the standard deviation of the averaged measurements. The list shows a part of the results.

`Nc1nc2c(ncn2[C@@H]2O[C@H](COP(=O)(O)OP(=O)(O)OP(=O)(O)O)[C@@H](O)[C@H]2O)c(=O)[nH]1` [guanosine triphosphate]: the NP40-soluble protein abundance runs as follows: (concentration: 0.1mM) 1.09 ± 0.18; (concentration: 0.5mM) 1.14 ± 0.18; (concentration: 1mM) 0.975 ± 0.15; (concentration: 2mM) 1.05 ± 0.23; (concentration: 4mM) 0.985 ± 0.19; (concentration: 6mM) 1.01 ± 0.16. Moreover, the NP40-soluble protein abundance amounted to 0.929 ± 0.11 (concentration: 8mM) and 0.937 ± 0.15 (concentration: 10mM).
